Measurements from PubChem BioAssay AID1508600 (Functional Genomics Laboratory (NCATS/FGL), 2020).
About 3,700 (7%) of roughly 53,000 sequences were called active.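 The calls were made as follows: active = gene knockdowns whose robust z-score for IL-1 alpha signal is at least 2 or at most -2, so actives lie on both sides; inactive = the rest.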 The list shows a part of the results.

Test: Components of the Cytosolic LPS Sensing Pathway: Gene Identification via Genome-wide siRNA Screen;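 also: robust z of the log signal after scaling to non-targeting control siRNA wells of the plate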
Settings: RAW264.7 macrophages, IL-1a HTRF, actives lie on both sides, screened at 100 nM (by protocol), cells primed 5 h with Pam3CSK4 first
Summary of the method: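 Read-out: IL-1a HTRF on supernatant, divided by plate negative-control median ×100, log-transformed and converted to robust z-score. Cells were RAW264.7 given 100 nM siRNA, Pam3CSK4-primed 5 hours, then LipidA-transfected 24 hour.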

| Sequence | z-score |
| --- | --- |
| CCUUUUACUCUAACGGACUTT against 4921507P07Rik | inactive: -0.875 |
| GCAUUGAUGUGAUUGAACCTT against Plxnb3 | inactive: -0.108 |
| GCCGUGUGGUAAUAGUGUCTT against Dhrs13 | inactive: 0.442 |
| CGAUCUUAACUCAUUCUUUTT against Dbx2 | inactive: 0.532 |
| GCACUUUGUAUGUCUAUCUTT against Tnfaip1 | active: 2.28 |
| GGAAGAUGUUUUCAGACUCTT against Polm | inactive: -1.29 |
| GGCACUACUUCUAUCGUAGTT against Repin1 | inactive: -0.608 |
| GGUGUUCCAGGUUAAAAUCTT against Poglut2 | inactive: -0.617 |
| GCUGCUGGAAACUAGACUGTT against Cyp2b13 | inactive: -1.71 |
| GGCCCUCUACAAUAUCGUCTT against Vac14 | inactive: 1.03 |
| GGGUUCAAUAACCACAUCATT against Ttc13 | active: -2.13 |
| GCCAGAACUGAUCGAAAUGTT against Myh2 | inactive: 0.314 |
| GGCAUCGUCUGCACAAAGATT against Fbn2 | inactive: -0.0226 |
| GGCCUUGAUGGUGAAGAUGTT against Vstm4 | inactive: -1.79 |
| GGAAGGAUGCUUCCUUGGATT against Stmn3 | inactive: 0.00806 |
| GCUAAAGCAAUACAUAGUUTT against Nav2 | inactive: -0.113 |
| GGGCAUGAAGAUCAAGAAGTT against Zfp608 | inactive: -0.147 |
| GCUUAUUGUUCAACCCAACTT against Dpp3 | inactive: -0.362 |
| CGAUGUCUGAGUUCAACACTT against Gclc | inactive: -0.124 |
| GAACAAUGCAGAGACAAUUTT against Olfr176 | inactive: -0.441 |
| GCUCUUCAACGAUUGUGGGTT against Clcn4 | inactive: -0.481 |
| CCACUAAAAUCUUACUGGATT against Scn7a | inactive: 0.671 |
| GGCGAUUAUGGAAAAAUGUTT against Osbpl11 | inactive: -0.431 |
| GGAUCUAGAACAGAAAAUGTT against Stat3 | inactive: -1.55 |
| CCUUACAUGUUGACUACCCTT against Rnase13 | inactive: 0.403 |
| GGUAUUCGAAGCAUACAAUTT against Pdha2 | active: 3.47 |

| Sequence | z-score |
| --- | --- |
| GGAGGAAGAGAACUUCGUGTT against Fstl3 | inactive: -0.648 |
| GCAGUAUGGCUACCUACCUTT against Mmp14 | inactive: -1.08 |
| GGGAAUACGUGUACUGAAGTT against Ttc17 | inactive: -0.338 |
| GCAGAACUUGACCACUGCCTT against Defb2 | active: 2.58 |
| CCGACUCUAACUGUGUCAGTT against Plekhn1 | inactive: -1.6 |
| GGCCAACUGCCAAUUUGUGTT against Rnf10 | inactive: -1.4 |
| GGAAUCAAAAUCUUUGAUGTT against Dab1 | inactive: 0.021 |
| GGUGCUACAGAACGUAUGCTT against Fh1 | inactive: -0.764 |
| GGAAUUCAGCUUAAAACUGTT against Ctsl | inactive: -0.221 |
| CCCUUCAACUACAUGUUUUTT against Aicda | inactive: -0.295 |
| GCAAUCCAUACAAGCUGUATT against Olfr1134 | inactive: 1.27 |
| GCUGCGACAAUUCAAUAUCTT against Rdh8 | inactive: -0.14 |
| GGGAAUUAUGGGCUUACCGTT against 4931414P19Rik | inactive: -0.414 |
| GGAACUUGAUCCUCAAUUUTT against Tomm6 | inactive: 0.668 |
| GGAUUUGGAAAUAUUAGAGTT against E330021D16Rik | inactive: 1.47 |
| GGGUUGGAUAGAAUAUUGUTT against Xk | inactive: 1.4 |
| GCUAGAUGUAGAUAGAUAATT against Plekhm3 | inactive: -0.569 |
| GGUUCAGAAGAGCUGAUGATT against Ezh2 | inactive: -1.84 |
| GGCUAGCUGCCCUUGUAUATT against Tmem128 | inactive: -0.894 |
| GGCAGAUCUAUUUAUGGUATT against Ccer1 | inactive: 0.229 |
| GGCAAUCAGGACGUAAAGUTT against Uhmk1 | inactive: -1.75 |
| GGUAGUCUUGACCCAAAAGTT against Gpr173 | inactive: -1.18 |
| CGAUAAAGGCCAAAUACUGTT against Ssb | inactive: 0.616 |
| GGAUGAGUACACCUUUGUGTT against Chdh | inactive: 0.96 |
| GGCUUAAUGUUGCUUCAGATT against Aven | inactive: -0.959 |
| GCUGAUCCGAUACAUCGACTT against Cuedc2 | inactive: 1.21 |

| Sequence | z-score |
| --- | --- |
| GCCCUGAGUGGUUCAAUAATT against Tmem242 | inactive: -0.176 |
| GGAAAAUUCCAGAAACCAUTT against Mettl8 | inactive: 0.608 |
| GGAACGAAUGUUCUUCGGUTT against Dst | inactive: 0.378 |
| GCGCAUACGAUAUGUGACCTT against H2-Ab1 | inactive: -0.311 |
| CCUUGUAACUGAGGCCCGATT against Olfr120 | inactive: 1.2 |
| GGCCACAGGAAGUCAGUUATT against Gsk3b | inactive: -1.23 |
| GGAUCAGUAGCAUUAACAATT against Tcf7l2 | inactive: 0.414 |
| GGCCUUUUAUUAGUGAGGGTT against 4932435O22Rik | inactive: -1.92 |
| GGACACUUCCAAUGAGUCCTT against Chrm4 | inactive: -0.869 |
| GGGUUCAGCAAUUUCAGCATT against Zbtb49 | inactive: -0.629 |
| CCGACAUUCGAGUUUUGCGTT against Rrp9 | inactive: -0.532 |
| GGAUCUCCUAAGUGUUCCCTT against Pnpo | inactive: 1.58 |
| CCUCAAGAUAAACCGACAATT against Bard1 | inactive: 0.388 |
| GCGGGCUGAAGAAGAAUUGTT against Ppp1r12c | inactive: 0.0887 |
| CCGACAUGUGGACAAAUGATT against Tas2r117 | inactive: -1.62 |
| CCUUACCACAGCCUCAAUGTT against Elfn2 | inactive: -0.227 |
| GGGAAAAUACACUAUUUGATT against Atad2b | inactive: 0.223 |
| GGCUCUUCCGAGAACAUCCTT against Kcne4 | inactive: -0.132 |
| GGGACAUGGACAAUAAACCTT against Wnt10a | inactive: -0.346 |
| GGCUGAUAAGGCUAAGUACTT against Fam110a | inactive: -0.121 |
| GGGCAUGCGGAUCUUCUUATT against Sbp | inactive: -0.474 |
| GGAUGUGCUAAUGAGGCCATT against Tjp3 | inactive: -0.228 |
| GGAACACAGAGAAUGGCUCTT against Rnf126 | inactive: 1.02 |
| GGGAUCCCGCAAAAUCAGATT against Osm | inactive: 0.63 |
| GGAGCUUAGCCUCUGUAUGTT against Gatd3a | inactive: -0.86 |

At a glance, part of the list above:

| Sequence | z-score |
| --- | --- |
| CCUUGUAACUGAGGCCCGATT against Olfr120 | inactive: 1.2 |
| GGCCACAGGAAGUCAGUUATT against Gsk3b | inactive: -1.23 |
| GGAUCAGUAGCAUUAACAATT against Tcf7l2 | inactive: 0.414 |
